Most values lie at the floor of the assay. Slopes are relative: functional sequences can read slightly below zero.

The values that follow come from the supplement of paper PMC5949888.

The series has as its system Saccharomyces cerevisiae PS128 hsf1 delta, HSF1(1-493) fusion. The series is described as follows: growth estimate (transactivation domain function in HSF1 fusion, heat-shock survival) (a.u. (slope of normalised read count over time)); higher = stronger growth at 37°C, i.e. more transactivation activity. The conditions noted are these: library: random library. As to the method:
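Random 60-nt DNA library encoding peptides of up to 20 aa, fused to the C-terminus of yeast HSF1 residues 1-493 (C-terminal TAD deleted) and expressed from the native HSF1 promoter on a CEN plasmid in hsf1-deleted S. cerevisiae PS128. Cells were selected at 37°C on -trp 5-FOA plates for 0, 2, 4, 6 and 8 days and amplicons were sequenced. Growth estimate is the slope of a robust linear fit of total-sum-normalised read counts (normalised to the first time point) over time, using at least 2 replicates. Sequences are classed functional (TAD activity) above a threshold of -0.13, set from stop-codon control sequences.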
As for PCGGNVGLDCGTVRGRNS, the growth estimate was < -0.25. The value for TLSGHLVFEPPIVSRTAHRW was < -0.25. For the substance TKSPRSGIFCKQPQSLSWNS, the growth estimate was < -0.25. In the case of YAHRNSFKVR, the growth estimate is < -0.25. Regarding ERAWLSLCGGKPKMFCVACK, the growth estimate was -0.208. On to GISAFCKYIGWM, for which the growth estimate is < -0.25.

As for QLYQ, the growth estimate was < -0.25. As for YKFGARCCSAPYPRASYKLT, the figure is < -0.25. The value for PQPDLALWSRWQFGNGLGET was < -0.25; that for SNGTN was < -0.25.

Consider SWGREGYLRRAVL, for which the growth estimate is < -0.25. The value for VLPQVASFYP was < -0.25; that for RCIAESIRSIKLFEVDGALM was < -0.25. The value for TVRPGLLDATSECRAGN was < -0.25. As for LVCWVGERMLVMDFIFSITP, the figure is < -0.25; as for VDGQHLQGEKWTGSWRVNNR, < -0.25. As to RRFGRCPSWRNSGAGWARSN, the growth estimate is < -0.25. In the case of RRGQSASCTIDPACTS, the growth estimate was < -0.25.

As to FSIDRRMPLSEGQSNSFQST, the growth estimate was < -0.25. LAERQYTTANAR: the growth estimate is < -0.25.

Consider PALPSIVIGPANIIYSTNTH, for which the growth estimate was < -0.25. LTSERVRL: the growth estimate was < -0.25.

With LMSDGAAGVP, the growth estimate was < -0.25. With TCLSFS, the growth estimate is < -0.25. Regarding LGSGPGKRYADLVRMGDPEM, the growth estimate is < -0.25. As for VRIIRQ, the figure is < -0.25; as for AGHAL, < -0.25. The value for LERGHKCTEIWSPKLLSRRF was < -0.25. With NLFCHLRSESDP, the growth estimate is < -0.25.

As to SVRKLR, the growth estimate was < -0.25. Turning to DEVSYNHRQFKVRMLAQGRR, the growth estimate is < -0.25. As for MRLRAGWSGGVAINLDV, the figure is < -0.25; as for EVKVGVRMRS, < -0.25; as for IKSASKRAANSKTYNRYALG, < -0.25. As for CQVDEEKSSVQ, the figure is < -0.25; as for IWHCGFWNCAPID, -0.188. As to ASFDLHGG, the growth estimate is < -0.25.

In the case of QGCMVVTAKRWRYETADP, the growth estimate is < -0.25.

Consider EAFSGMPNHCTIYSSLQPGI, for which the growth estimate was < -0.25. For AFISLSVVVTQSDPCVSAHR, the growth estimate is < -0.25.

For the substance LTGLFLSQRYVEWEGPTLVR, the growth estimate was < -0.25. As for QGRGITRFRDATGSYVLSGL, the figure is < -0.25; as for MLIAEASTTGCGRHTCNSAQ, < -0.25; as for ALPRSLIELEVDNFA, < -0.25. In the case of GGTV, the growth estimate was < -0.25. Regarding PKLGP, the growth estimate was < -0.25. As for PRLYHVTNNPFPPLSEEWDA, the figure is < -0.25; as for SLKSAEVSLVGCRLCWKPRV, < -0.25; as for QVQFVRNGLLGPSGSYRPAD, < -0.25. As for TFSGRSLWGMDDLSTGVTPR, the figure is < -0.25; as for GPKRASMGGSGGVLRYDTRV, < -0.25. In the case of RSGGKKCKLVSNDSGKQGPI, the growth estimate is < -0.25. The value for TCSRRKWVKVSRYRCHVGRV was < -0.25; that for NPRWRVPLTWEKVSRRESTY was < -0.25.

For AERAIMGHSTTYTMSGAPTR, the growth estimate was < -0.25. The value for LLGAVGPSFSDRKRQAKRHA was < -0.25; that for LDKRDMSVDAVSVNVDIDLR was < -0.25; that for SQAPSVMQKNHCIRTPRF was < -0.25. VKGTALRI: the growth estimate was -0.21.

As to AAR, the growth estimate was < -0.25. As for TYQRSWA, the figure is < -0.25; as for FLSSLARRHVPTFRRKRCGA, < -0.25. As for LGGESRSVLSPVRS, the growth estimate is < -0.25. As for SGVQASVRPHTPHNYPRVNS, the growth estimate was < -0.25. As for TLETLPLYITEIFAWLKAIH, the figure is < -0.25. As for VRAIALHGRF, the figure is < -0.25.

For the substance HSGLSTP, the growth estimate was < -0.25. Regarding IQCVLFAGLLPTSQAVF, the growth estimate was < -0.25. The value for FIATSVYTVGSWSTVQVSLA was < -0.25; that for PILSSA was < -0.25; that for ITVKPFAA was -0.197. With QYPWRAREGVVRAARTISPR, the growth estimate is < -0.25. Take LVPVRQRPTISLKEEASTPL: the growth estimate is < -0.25.

In the case of KSWPSVLGFSRAGHAWA, the growth estimate is < -0.25. For the substance VVLP, the growth estimate is < -0.25.

With LDPIGQYL, the growth estimate was < -0.25. Regarding GFADLQYPAYCA, the growth estimate is < -0.25.

On to EAR, for which the growth estimate was < -0.25. As for VWVVSRYKIQSIFCFILSPW, the figure is < -0.25; as for SWSSHFAPSVVVRAVLASNS, < -0.25; as for KQQLRYDSPAL, < -0.25. The value for NAKFSAELLLRKLKVARLHL was < -0.25. As for HHKFLLNDGGQGFE, the figure is < -0.25; as for DKVVCFITWHVY, -0.229. Turning to RMGLFGIYGSVGIYIAVYLS, the growth estimate was 0.001. The value for SSKNA was < -0.25; that for YGNVSHDDKVYNPKTIQGCM was < -0.25; that for YYLATTSPMT was -0.245.

On to SHGGTSSWYVQAFNRCR, for which the growth estimate was < -0.25.

For the substance TADGGITRQLSPPCNGSLAL, the growth estimate is < -0.25. For SWPLESRALRVLVIPAGTCS, the growth estimate was < -0.25. The value for CWVCDIRAYCRLVAFPKLKV was < -0.25. As for DDRLVGWK, the figure is < -0.25; as for ILVILGHR, -0.243; as for AHVGFPLD, < -0.25.

On to LVGLSLFRSEDFIRA, for which the growth estimate is < -0.25. As for IRFVYVGTALVKERRL, the growth estimate was < -0.25. The value for ILQGRILWFLVLNLRCSASR was < -0.25; that for AKLQRTDF was < -0.25; that for GIQIHAFDAGQCN was < -0.25. As for VARQTVGRSITTRQRLQSSW, the figure is < -0.25; as for SGRGLTNAGM, < -0.25. In the case of RPRHKIA, the growth estimate was < -0.25. As for VGQRDISPAYRVCWRLHSVP, the figure is < -0.25. As for GFRQIGGKCPDGSFDKCGIL, the figure is < -0.25. For the substance RDLGRC, the growth estimate was < -0.25. The value for RLR was < -0.25. The value for SHFDA was -0.243; that for RRNSSYDNSFIPGSLRQSPD was < -0.25; that for FPRTLVFYVGRNQ was < -0.25. The value for GVQVLVAEYVNKQPWVSSRC was < -0.25. Regarding SANRMRSVLRTLVRLLVNES, the growth estimate is < -0.25. The value for QMIMGEEPGPAMDPARSYRR was < -0.25; that for ERLLRRFSWGTGVAD was < -0.25. In the case of TDVMLSVCTL, the growth estimate was < -0.25.
